Reference: paper PMC4666391 (Nucleic Acids Research, 2015)
Read-outs that look alike come from different tables or passages of the source. No constants are given. Whether binding was seen depends on the method and setting. For some assays here: In cells and extracts the contact can be indirect. Some entries that bind do so weakly or less than the wild type. For some assays here: Sequences can lack the tags named with a protein. One block for each molecule: values may come before it.

Chains of the proteins cited; added tags and fusions are not shown. Lines headed by an entry give the natural chain unless they say otherwise; changes in a name come on top.
UniProt P29469: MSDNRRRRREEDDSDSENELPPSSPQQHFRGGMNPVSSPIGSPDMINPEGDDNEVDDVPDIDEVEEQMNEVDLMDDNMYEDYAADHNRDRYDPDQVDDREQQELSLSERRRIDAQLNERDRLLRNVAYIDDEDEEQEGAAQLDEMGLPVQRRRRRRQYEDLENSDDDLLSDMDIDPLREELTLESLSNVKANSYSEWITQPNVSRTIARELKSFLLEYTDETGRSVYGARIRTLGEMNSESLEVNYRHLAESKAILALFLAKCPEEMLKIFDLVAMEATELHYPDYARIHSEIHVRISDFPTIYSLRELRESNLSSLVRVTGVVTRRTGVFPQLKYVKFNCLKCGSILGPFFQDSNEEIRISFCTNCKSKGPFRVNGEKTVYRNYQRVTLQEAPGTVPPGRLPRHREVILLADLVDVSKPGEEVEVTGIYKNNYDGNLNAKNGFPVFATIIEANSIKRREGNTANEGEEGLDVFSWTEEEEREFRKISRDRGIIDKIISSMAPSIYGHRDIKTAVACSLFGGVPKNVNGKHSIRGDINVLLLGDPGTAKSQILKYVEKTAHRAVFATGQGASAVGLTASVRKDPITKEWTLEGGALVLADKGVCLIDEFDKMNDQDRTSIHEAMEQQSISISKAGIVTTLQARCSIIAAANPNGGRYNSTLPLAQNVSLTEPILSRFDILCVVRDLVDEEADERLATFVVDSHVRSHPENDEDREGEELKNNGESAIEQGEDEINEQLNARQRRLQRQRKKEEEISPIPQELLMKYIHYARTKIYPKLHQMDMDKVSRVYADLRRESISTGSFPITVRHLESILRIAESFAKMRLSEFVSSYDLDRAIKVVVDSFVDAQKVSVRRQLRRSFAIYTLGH
UniProt P24279: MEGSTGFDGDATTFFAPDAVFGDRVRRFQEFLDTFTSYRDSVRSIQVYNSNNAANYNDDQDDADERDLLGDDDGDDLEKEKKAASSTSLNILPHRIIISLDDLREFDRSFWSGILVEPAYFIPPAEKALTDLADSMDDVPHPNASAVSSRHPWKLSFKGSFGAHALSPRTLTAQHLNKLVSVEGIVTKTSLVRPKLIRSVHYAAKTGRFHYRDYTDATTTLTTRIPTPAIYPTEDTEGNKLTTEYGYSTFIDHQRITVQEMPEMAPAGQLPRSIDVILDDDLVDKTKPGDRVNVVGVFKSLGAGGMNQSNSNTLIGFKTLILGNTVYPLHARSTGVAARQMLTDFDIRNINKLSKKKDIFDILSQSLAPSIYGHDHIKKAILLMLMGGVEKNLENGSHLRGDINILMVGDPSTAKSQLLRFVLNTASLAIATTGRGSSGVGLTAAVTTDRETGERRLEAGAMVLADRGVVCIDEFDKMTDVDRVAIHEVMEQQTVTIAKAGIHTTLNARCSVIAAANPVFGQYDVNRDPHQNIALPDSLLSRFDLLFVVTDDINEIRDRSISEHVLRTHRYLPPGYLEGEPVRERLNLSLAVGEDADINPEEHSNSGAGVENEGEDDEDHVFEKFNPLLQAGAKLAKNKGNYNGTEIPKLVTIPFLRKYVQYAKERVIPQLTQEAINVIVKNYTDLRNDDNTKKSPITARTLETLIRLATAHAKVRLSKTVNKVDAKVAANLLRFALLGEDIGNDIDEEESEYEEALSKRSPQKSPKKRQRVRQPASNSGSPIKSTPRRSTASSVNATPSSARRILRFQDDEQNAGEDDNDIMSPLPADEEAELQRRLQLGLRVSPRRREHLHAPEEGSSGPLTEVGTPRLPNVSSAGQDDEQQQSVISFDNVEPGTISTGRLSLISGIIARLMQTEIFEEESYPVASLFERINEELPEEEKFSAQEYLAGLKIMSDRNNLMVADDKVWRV
UniProt P30665: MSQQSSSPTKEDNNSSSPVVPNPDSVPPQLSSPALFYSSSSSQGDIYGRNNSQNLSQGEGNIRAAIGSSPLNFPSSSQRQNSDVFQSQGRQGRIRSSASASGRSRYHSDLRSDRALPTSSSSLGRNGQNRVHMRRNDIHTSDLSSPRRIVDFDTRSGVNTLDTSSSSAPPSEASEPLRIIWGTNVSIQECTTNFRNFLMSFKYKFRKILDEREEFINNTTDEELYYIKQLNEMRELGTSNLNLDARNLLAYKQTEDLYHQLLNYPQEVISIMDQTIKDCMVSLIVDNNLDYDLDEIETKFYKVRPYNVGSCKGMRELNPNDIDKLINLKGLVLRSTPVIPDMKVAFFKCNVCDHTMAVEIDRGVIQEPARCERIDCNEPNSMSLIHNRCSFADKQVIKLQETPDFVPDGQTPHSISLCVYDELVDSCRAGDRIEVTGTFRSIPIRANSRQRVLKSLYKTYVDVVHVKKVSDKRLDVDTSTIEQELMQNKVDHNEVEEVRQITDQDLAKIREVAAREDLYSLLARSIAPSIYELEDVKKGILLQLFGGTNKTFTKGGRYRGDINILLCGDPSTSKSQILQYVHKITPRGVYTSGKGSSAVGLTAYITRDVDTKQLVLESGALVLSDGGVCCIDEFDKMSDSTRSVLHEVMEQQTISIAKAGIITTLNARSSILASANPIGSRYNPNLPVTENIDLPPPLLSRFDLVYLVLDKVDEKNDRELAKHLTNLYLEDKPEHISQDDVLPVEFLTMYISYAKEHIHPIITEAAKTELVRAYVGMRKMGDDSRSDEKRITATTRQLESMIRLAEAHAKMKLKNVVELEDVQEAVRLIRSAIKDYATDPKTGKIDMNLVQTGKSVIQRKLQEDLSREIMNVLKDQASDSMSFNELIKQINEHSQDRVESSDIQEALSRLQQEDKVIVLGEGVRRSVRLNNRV
UniProt P29496: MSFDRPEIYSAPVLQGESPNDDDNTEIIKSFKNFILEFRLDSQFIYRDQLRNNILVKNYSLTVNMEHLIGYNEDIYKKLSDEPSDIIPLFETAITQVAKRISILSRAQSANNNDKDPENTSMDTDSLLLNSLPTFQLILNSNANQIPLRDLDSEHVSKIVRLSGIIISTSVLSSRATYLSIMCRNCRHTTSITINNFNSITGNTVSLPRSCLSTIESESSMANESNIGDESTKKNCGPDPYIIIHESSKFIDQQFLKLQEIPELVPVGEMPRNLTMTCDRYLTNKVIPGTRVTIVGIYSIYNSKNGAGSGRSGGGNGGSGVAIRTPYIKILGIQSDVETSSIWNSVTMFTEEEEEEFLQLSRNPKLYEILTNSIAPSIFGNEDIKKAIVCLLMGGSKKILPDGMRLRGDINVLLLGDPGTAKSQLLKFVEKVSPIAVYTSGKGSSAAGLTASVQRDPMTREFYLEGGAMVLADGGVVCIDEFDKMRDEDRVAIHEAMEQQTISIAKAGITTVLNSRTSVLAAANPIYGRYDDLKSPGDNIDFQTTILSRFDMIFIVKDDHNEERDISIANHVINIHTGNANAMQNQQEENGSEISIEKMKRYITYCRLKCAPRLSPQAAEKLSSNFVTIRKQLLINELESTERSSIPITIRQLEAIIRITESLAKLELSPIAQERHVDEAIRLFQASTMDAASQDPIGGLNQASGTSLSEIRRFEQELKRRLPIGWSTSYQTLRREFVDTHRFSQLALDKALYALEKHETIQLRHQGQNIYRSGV
UniProt P53091: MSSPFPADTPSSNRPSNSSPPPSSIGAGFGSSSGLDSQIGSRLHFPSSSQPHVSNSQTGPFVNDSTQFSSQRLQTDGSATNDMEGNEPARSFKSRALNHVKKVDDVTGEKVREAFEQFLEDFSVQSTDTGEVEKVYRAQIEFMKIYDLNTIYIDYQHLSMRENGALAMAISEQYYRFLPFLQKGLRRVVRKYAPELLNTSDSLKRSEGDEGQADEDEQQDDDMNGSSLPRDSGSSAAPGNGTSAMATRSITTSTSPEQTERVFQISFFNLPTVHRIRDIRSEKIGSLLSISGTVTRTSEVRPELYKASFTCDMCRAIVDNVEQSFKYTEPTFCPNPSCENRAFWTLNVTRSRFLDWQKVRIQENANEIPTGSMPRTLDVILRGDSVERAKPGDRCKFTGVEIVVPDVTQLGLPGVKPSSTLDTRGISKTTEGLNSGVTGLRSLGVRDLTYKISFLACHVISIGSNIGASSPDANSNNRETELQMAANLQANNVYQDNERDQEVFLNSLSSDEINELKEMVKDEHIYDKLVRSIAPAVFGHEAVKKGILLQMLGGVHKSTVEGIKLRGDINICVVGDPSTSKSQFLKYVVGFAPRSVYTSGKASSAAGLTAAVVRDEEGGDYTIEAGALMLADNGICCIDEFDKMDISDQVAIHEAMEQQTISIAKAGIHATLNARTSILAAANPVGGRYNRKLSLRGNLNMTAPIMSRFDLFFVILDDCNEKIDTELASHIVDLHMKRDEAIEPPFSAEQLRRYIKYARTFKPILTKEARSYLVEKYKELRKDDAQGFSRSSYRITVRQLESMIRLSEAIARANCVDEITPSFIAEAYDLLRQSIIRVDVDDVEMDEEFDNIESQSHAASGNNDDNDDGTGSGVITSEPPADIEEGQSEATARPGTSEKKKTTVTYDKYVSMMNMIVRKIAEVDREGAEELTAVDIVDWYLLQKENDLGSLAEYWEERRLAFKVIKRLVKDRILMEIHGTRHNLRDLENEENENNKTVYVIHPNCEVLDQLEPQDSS
UniProt P38132: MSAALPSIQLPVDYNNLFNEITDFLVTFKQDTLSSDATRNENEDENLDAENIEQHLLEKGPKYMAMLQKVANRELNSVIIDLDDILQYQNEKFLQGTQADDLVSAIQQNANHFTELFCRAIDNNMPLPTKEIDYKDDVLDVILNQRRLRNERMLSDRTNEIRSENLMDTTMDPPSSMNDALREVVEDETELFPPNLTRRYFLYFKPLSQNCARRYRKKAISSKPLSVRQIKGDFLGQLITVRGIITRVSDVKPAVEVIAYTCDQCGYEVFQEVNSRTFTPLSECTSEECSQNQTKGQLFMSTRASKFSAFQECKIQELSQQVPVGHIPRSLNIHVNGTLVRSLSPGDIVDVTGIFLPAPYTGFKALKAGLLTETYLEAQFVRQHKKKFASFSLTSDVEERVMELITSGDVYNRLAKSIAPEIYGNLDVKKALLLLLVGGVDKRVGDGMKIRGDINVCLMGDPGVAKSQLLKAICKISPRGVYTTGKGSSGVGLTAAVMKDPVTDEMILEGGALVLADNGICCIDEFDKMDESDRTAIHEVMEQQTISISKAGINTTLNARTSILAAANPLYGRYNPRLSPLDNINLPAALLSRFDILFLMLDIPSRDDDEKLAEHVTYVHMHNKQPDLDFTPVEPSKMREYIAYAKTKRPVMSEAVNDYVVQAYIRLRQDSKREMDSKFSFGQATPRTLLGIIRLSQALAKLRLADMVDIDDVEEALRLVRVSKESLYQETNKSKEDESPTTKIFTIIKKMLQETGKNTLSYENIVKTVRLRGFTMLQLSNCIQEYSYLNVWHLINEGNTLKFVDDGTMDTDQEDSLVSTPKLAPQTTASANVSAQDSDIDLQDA

Key:
GST-Sld2 (S. cerevisiae) [1] = biological target: T1, GST-Sld2 (S. cerevisiae) (UniProt P34252); test: pull-down; GST-Sld2 (400 ng) or equimolar GST immobilized on magnetic beads, incubated with S^35 labeled in vitro transcribed and translated protein; SDS-PAGE, autoradiography; 5% input; only the target purified
T1 sequence: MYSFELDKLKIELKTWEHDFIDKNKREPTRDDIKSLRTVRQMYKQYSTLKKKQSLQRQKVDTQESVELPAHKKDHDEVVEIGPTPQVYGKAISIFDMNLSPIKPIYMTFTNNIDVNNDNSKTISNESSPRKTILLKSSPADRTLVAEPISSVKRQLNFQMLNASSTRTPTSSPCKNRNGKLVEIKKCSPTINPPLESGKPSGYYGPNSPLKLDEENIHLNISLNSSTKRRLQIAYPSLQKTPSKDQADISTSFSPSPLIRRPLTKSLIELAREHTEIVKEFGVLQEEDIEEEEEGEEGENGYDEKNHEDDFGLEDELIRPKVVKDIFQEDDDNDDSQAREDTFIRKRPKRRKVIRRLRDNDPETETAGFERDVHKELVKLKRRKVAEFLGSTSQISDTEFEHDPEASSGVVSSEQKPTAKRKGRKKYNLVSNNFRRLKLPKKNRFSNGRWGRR

[2] = biological target: pre-RC (MCM2–7 double-hexamer loaded on pUC19-ARS1 DNA) (S. cerevisiae) (UniProt P29469+P24279+P30665+P29496+P53091+P38132); test: SEC; gel-filtration based pre-RC assay: one factor (40 nM) added alone to pre-RC assembled in solution on pUC19-ARS1, no DDK; 1–30 min at 27°C with competitor DNA and BSA, then 200 mM KAc, Sephacryl S400 HR spin column; DNA-bound proteins in the eluate by SDS-PAGE; both purified
[3] = biological target: T2, Sld3 (purified) (S. cerevisiae) (UniProt P53135); test: pull-down; Sld3 (150 ng) immobilized on anti-Sld3 magnetic beads or control beads, incubated with S^35 labeled in vitro transcribed and translated Sld2; autoradiography; 5% input; only the target purified
T2 sequence: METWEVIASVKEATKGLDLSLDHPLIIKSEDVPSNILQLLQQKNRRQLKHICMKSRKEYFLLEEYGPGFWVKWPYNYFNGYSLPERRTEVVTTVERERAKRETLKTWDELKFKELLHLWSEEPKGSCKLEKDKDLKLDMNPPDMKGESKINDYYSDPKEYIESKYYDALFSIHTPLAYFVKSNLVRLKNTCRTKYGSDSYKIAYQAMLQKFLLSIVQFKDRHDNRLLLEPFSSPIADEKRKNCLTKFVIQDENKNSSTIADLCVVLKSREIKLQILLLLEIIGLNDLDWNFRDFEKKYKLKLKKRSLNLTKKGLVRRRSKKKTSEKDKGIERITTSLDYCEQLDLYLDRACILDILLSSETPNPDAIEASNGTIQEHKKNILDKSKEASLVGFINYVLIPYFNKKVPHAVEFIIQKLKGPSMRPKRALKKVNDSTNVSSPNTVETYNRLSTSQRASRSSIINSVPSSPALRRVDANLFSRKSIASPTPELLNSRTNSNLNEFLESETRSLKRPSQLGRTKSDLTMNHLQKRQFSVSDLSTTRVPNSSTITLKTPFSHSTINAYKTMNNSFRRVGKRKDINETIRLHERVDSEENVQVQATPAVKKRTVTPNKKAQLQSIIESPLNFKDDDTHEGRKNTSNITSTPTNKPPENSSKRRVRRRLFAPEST

GST-Sld2 (S. cerevisiae) [4] = biological target: T1, GST-Sld2 (S. cerevisiae); test: pull-down; GST-Sld2 (400 ng) or equimolar GST immobilized on magnetic beads, incubated with S^35 labeled in vitro transcribed and translated protein; SDS-PAGE, autoradiography; 5% input; only the target purified; remark: listed apart in the source

binding [3]: binds
B2: Sld2 (in vitro transcribed and translated) (protein, UniProt P34252 1-453)
chain: MYSFELDKLKIELKTWEHDFIDKNKREPTRDDIKSLRTVRQMYKQYSTLKKKQSLQRQKVDTQESVELPAHKKDHDEVVEIGPTPQVYGKAISIFDMNLSPIKPIYMTFTNNIDVNNDNSKTISNESSPRKTILLKSSPADRTLVAEPISSVKRQLNFQMLNASSTRTPTSSPCKNRNGKLVEIKKCSPTINPPLESGKPSGYYGPNSPLKLDEENIHLNISLNSSTKRRLQIAYPSLQKTPSKDQADISTSFSPSPLIRRPLTKSLIELAREHTEIVKEFGVLQEEDIEEEEEGEEGENGYDEKNHEDDFGLEDELIRPKVVKDIFQEDDDNDDSQAREDTFIRKRPKRRKVIRRLRDNDPETETAGFERDVHKELVKLKRRKVAEFLGSTSQISDTEFEHDPEASSGVVSSEQKPTAKRKGRKKYNLVSNNFRRLKLPKKNRFSNGRWGRR
modifications: S^35 labeled

binding (GST-Sld2 (S. cerevisiae) [4]): binds
B3: Sld7 (in vitro transcribed and translated) (protein, UniProt Q08457 1-257)
chain: MSRKLCTLNFTLSGKQGSLVIRDIQLWSNRPTASKSTSELRGQFIQYVDLAKLPLWVRSTNMNTYRCYSTSATAQAYFKSKLRNANRGIVIELFDKVDQRSQEPAYLIIFRENTELNCFQVDLTMKHEFDGQVTKLKQDIGKTRASVSKEGSIDIIIQQSQQRKIGTKTEVYRNVHINDKRLQFNETLSKLILGGLRLRGISNSITDYQKLYKITFDAAEFTHRDELKRISMGSGEEVSFESLQETVETLLKLFTKS
modifications: S^35 labeled

Further lines, the molecule ahead of its results:

Molecule: Mcm2 (in vitro transcribed and translated) (from UniProt P29469 1-868)
binding (GST-Sld2 (S. cerevisiae) [1]): binds

B1: Sld2 (purified) (natural protein, S. cerevisiae, UniProt P34252 1-453, looked up)
chain: MYSFELDKLKIELKTWEHDFIDKNKREPTRDDIKSLRTVRQMYKQYSTLKKKQSLQRQKVDTQESVELPAHKKDHDEVVEIGPTPQVYGKAISIFDMNLSPIKPIYMTFTNNIDVNNDNSKTISNESSPRKTILLKSSPADRTLVAEPISSVKRQLNFQMLNASSTRTPTSSPCKNRNGKLVEIKKCSPTINPPLESGKPSGYYGPNSPLKLDEENIHLNISLNSSTKRRLQIAYPSLQKTPSKDQADISTSFSPSPLIRRPLTKSLIELAREHTEIVKEFGVLQEEDIEEEEEGEEGENGYDEKNHEDDFGLEDELIRPKVVKDIFQEDDDNDDSQAREDTFIRKRPKRRKVIRRLRDNDPETETAGFERDVHKELVKLKRRKVAEFLGSTSQISDTEFEHDPEASSGVVSSEQKPTAKRKGRKKYNLVSNNFRRLKLPKKNRFSNGRWGRR
notes: Sld2, S. cerevisiae; it may or may not be the same preparation as GST-Sld2; also called purified Sld2; source: purified
binding [2]: binds

B4: Sld3 (in vitro transcribed and translated) (protein, UniProt P53135 1-668)
chain: METWEVIASVKEATKGLDLSLDHPLIIKSEDVPSNILQLLQQKNRRQLKHICMKSRKEYFLLEEYGPGFWVKWPYNYFNGYSLPERRTEVVTTVERERAKRETLKTWDELKFKELLHLWSEEPKGSCKLEKDKDLKLDMNPPDMKGESKINDYYSDPKEYIESKYYDALFSIHTPLAYFVKSNLVRLKNTCRTKYGSDSYKIAYQAMLQKFLLSIVQFKDRHDNRLLLEPFSSPIADEKRKNCLTKFVIQDENKNSSTIADLCVVLKSREIKLQILLLLEIIGLNDLDWNFRDFEKKYKLKLKKRSLNLTKKGLVRRRSKKKTSEKDKGIERITTSLDYCEQLDLYLDRACILDILLSSETPNPDAIEASNGTIQEHKKNILDKSKEASLVGFINYVLIPYFNKKVPHAVEFIIQKLKGPSMRPKRALKKVNDSTNVSSPNTVETYNRLSTSQRASRSSIINSVPSSPALRRVDANLFSRKSIASPTPELLNSRTNSNLNEFLESETRSLKRPSQLGRTKSDLTMNHLQKRQFSVSDLSTTRVPNSSTITLKTPFSHSTINAYKTMNNSFRRVGKRKDINETIRLHERVDSEENVQVQATPAVKKRTVTPNKKAQLQSIIESPLNFKDDDTHEGRKNTSNITSTPTNKPPENSSKRRVRRRLFAPEST
modifications: S^35 labeled
binding (GST-Sld2 (S. cerevisiae) [4]): binds
